{"sequences": {"note": "Protein sequences, listed by entry. Tags and fused reporters are not part of them. Lines headed by an entry give the natural chain unless they say otherwise; changes in a name come on top.", "UniProt Q9T020": "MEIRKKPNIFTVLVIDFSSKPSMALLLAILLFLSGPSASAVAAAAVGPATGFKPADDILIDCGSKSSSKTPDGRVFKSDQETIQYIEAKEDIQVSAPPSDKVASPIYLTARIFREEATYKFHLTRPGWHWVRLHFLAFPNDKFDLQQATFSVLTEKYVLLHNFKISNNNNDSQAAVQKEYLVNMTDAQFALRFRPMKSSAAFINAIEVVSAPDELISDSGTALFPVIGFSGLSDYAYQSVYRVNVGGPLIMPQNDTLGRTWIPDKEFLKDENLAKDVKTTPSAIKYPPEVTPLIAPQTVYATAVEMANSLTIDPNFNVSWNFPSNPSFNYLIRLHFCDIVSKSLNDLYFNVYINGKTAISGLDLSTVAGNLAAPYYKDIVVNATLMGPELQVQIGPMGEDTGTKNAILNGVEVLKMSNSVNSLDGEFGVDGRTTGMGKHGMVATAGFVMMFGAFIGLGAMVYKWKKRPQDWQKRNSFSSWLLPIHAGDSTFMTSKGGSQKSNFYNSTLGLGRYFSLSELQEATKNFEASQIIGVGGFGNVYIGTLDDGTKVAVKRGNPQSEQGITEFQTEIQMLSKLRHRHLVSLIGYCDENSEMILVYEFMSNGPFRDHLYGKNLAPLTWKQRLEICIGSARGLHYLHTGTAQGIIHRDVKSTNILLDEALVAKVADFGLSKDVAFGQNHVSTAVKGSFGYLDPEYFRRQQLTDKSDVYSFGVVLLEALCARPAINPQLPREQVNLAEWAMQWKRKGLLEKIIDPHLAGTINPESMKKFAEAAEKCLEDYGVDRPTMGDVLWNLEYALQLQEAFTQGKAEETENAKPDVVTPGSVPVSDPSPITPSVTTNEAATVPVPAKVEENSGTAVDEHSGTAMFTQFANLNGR", "UniProt O80623": "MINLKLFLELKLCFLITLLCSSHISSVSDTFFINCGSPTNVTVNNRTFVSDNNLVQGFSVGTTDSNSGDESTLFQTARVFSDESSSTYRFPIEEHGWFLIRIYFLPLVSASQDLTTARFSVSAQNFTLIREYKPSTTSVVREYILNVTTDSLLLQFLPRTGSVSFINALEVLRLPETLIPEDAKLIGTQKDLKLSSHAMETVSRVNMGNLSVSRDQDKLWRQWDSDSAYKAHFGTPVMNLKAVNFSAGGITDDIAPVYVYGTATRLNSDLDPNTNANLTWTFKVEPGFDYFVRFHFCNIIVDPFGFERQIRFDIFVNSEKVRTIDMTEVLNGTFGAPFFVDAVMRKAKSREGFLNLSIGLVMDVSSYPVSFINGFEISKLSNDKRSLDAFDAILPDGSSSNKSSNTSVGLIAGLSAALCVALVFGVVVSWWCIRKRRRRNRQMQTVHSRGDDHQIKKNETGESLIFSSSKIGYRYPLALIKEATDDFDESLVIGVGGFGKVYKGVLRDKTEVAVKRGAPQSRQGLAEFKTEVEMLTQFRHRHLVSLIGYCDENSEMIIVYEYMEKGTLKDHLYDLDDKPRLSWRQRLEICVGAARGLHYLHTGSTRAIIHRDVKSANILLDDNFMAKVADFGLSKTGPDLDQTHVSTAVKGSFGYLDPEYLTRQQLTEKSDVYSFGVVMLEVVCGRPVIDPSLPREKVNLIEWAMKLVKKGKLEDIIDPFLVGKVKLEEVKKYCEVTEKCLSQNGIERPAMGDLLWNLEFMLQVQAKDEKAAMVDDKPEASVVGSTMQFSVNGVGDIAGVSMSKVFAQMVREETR", "UniProt Q9SA72": "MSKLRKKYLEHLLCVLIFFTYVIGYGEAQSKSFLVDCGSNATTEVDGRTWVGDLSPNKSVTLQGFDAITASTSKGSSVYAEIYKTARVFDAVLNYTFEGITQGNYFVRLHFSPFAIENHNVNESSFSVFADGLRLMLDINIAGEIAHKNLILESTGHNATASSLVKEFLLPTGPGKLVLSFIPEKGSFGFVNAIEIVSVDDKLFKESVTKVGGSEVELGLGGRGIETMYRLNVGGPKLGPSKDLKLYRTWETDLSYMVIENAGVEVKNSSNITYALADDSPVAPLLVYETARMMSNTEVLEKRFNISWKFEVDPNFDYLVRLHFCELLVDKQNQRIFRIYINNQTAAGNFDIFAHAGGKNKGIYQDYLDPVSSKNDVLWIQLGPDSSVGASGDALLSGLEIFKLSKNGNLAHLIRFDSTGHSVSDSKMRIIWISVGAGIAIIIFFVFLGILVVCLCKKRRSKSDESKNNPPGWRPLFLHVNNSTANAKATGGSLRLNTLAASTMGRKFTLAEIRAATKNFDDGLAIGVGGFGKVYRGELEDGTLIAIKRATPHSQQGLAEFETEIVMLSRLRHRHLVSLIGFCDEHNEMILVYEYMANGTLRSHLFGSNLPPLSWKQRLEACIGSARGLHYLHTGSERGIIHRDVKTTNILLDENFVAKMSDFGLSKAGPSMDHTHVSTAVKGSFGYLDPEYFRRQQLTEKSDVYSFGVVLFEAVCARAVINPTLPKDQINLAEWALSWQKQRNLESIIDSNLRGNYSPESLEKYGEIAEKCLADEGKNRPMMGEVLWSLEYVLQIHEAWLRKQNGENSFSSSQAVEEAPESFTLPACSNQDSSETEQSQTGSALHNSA", "UniProt Q9FID9": "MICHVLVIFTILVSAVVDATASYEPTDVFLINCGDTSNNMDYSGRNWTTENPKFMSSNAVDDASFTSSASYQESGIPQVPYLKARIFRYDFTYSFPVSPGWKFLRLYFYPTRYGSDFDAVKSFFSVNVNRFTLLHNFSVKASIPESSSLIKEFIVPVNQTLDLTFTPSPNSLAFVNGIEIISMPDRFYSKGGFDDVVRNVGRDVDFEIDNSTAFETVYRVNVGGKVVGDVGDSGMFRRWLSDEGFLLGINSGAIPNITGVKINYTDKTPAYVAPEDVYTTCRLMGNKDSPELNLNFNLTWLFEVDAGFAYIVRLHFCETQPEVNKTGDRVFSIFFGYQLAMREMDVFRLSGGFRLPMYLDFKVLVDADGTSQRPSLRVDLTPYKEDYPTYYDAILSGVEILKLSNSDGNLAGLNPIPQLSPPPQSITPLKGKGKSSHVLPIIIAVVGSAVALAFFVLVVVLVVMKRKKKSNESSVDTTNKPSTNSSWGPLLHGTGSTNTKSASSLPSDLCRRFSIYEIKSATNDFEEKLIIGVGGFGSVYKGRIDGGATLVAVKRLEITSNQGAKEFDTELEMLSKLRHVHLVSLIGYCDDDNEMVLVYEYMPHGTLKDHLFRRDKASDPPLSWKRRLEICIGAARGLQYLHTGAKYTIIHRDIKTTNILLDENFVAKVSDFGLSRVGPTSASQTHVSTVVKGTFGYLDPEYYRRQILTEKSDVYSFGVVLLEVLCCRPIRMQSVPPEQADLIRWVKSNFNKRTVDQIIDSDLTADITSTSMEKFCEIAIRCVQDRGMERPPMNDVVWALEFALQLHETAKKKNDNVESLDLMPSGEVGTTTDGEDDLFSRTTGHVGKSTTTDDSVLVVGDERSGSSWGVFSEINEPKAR", "UniProt Q9FID6": "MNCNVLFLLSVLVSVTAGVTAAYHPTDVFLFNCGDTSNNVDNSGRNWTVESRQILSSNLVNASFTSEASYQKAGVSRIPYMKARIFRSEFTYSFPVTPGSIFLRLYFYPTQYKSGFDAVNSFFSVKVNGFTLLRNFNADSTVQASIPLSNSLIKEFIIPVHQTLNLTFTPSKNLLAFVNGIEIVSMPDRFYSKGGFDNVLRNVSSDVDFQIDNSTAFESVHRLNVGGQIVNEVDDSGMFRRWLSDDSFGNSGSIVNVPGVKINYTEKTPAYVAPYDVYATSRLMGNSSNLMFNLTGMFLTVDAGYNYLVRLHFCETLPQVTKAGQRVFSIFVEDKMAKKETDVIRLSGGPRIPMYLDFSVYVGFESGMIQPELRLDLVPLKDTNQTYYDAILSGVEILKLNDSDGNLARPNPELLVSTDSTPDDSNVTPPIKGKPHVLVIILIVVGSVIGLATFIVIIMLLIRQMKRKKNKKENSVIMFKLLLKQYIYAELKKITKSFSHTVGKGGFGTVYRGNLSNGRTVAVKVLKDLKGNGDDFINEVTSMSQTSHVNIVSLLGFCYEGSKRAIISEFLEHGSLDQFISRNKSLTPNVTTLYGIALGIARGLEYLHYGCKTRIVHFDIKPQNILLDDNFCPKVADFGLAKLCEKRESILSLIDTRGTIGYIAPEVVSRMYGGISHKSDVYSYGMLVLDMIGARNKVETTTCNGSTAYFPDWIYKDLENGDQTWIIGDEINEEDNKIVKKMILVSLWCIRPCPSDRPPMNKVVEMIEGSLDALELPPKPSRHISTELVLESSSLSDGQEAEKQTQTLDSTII"}, "source": "paper doi:10.1101/2021.10.13.464316", "about": "(bioRxiv, 2021)", "binders": {"B1": {"name": "GST–CAR9 (natural protein)", "chain": "MEDKPLGILRVHVKRGINLAIRDATTSDPYVVITLANQKLKTRVINNNCNPVWNEQLTLSIKDVNDPIRLTVFDKDRFSGDDKMGDAEIDFRPFLEAHQMELDFQKLPNGCAIKRIRPGRTNCLAEESSITWSNGKIMQEMILRLKNVECGEVELMLEWTDGPGCKGLGREGSKKTPWMPTKRLD"}}, "experiment_in_all_cases": "two-hybrid", "key": {"[1]": {"molecular_target": "cytoplasmic domain of BUPS1 fused to the GAL4 DNA-binding domain (Arabidopsis thaliana) (UniProt Q9T020)"}, "[2]": {"molecular_target": "cytoplasmic domain of CVY1 fused to the GAL4 DNA-binding domain (Arabidopsis thaliana) (UniProt O80623)"}, "[3]": {"molecular_target": "cytoplasmic domain of HERK2 fused to the GAL4 DNA-binding domain (Arabidopsis thaliana) (UniProt Q9SA72)"}, "[4]": {"molecular_target": "cytoplasmic domain of MDS1 fused to the GAL4 DNA-binding domain (Arabidopsis thaliana) (UniProt Q9FID9)"}, "[5]": {"molecular_target": "cytoplasmic domain of MDS3 fused to the GAL4 DNA-binding domain (Arabidopsis thaliana) (UniProt Q9FID6)"}}, "note": "No constants are given. Whether binding was seen depends on the method and setting. For some assays here: A result given as binding can be weak or reduced; the word gives no strength. Tags and fused reporters may be left off the sequences shown.", "data": [{"binder": "B1", "values": [{"measurement": "binding", "setting": "[1]", "value": "binds"}, {"measurement": "binding", "setting": "[2]", "value": "no binding"}, {"measurement": "binding", "setting": "[3]", "value": "no binding"}, {"measurement": "binding", "setting": "[4]", "value": "no binding"}, {"measurement": "binding", "setting": "[5]", "value": "no binding"}]}]}
